Values from PubChem BioAssay AID1259254 (NCATS, 2017).
Aim: 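Gene knock-downs that lead to re-replication, shown by excess G2 DNA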 (primary screen). Cell system: human HCT116 colorectal cancer cells. Reagent: single siRNA against human genes. Timing: 3 days. Read-out: 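Nuclei stained with Hoechst and imaged; cell-cycle phase assigned by DNA content; G2 share scaled per plate, non-targeting siRNA 0%, GMNN siRNA 100%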. Scale: G2 robust z-score and G2 cells, % of GMNN control: higher = more G2 cells, more excess DNA replication; raw share of cells in G2: higher = larger share of cells with G2 DNA content. Call rule: 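Active siRNAs have a G2 robust z of 5 or more median absolute deviations over the median, which in these data means about 38% or higher of GMNN control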.
The deposit covers about 59,000 reagents; shown is an unselected part. About 1,550 of all reagents (2.6%) count as active. 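G2 share is only a proxy for re-replication; each gene was hit by three separate siRNAs, and active genes were retested.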 Raw values are not corrected between plates. Reagents against one gene are numbered here. No sequences are given here. Not stated in the record: the amount of reagent.

| gene | siRNA no. | G2 robust z-score | G2 cells, % of GMNN control | raw share of cells in G2 (%) | Outcome |
| --- | --- | --- | --- | --- | --- |
| GRIPAP1 (GeneID 56850) | 1 | 1.28 | 12 | 6.82 | inactive |
| GRIPAP1 (GeneID 56850) | 2 | 2.58 | 21.1 | 12.7 | inactive |
| GRIPAP1 (GeneID 56850) | 3 | -0.413 | 0.0598 | 4.49 | inactive |
| CETN2 (GeneID 1069) | 1 | 0.806 | 8.64 | 6.89 | inactive |
| CETN2 (GeneID 1069) | 2 | 0.308 | 5.13 | 7.25 | inactive |
| CETN2 (GeneID 1069) | 3 | -0.682 | -1.83 | 2.44 | inactive |
| OSM (GeneID 5008) | 1 | 0.0465 | 3.29 | 6.37 | inactive |
| OSM (GeneID 5008) | 2 | 1.51 | 13.6 | 9.58 | inactive |
| OSM (GeneID 5008) | 3 | 3.76 | 29.5 | 14 | inactive |
| SLC35D4 (GeneID 85019) | 1 | -0.917 | -3.48 | 2.6 | inactive |
| SLC35D4 (GeneID 85019) | 2 | 0.66 | 7.61 | 5.39 | inactive |
| SLC35D4 (GeneID 85019) | 3 | 0.265 | 4.83 | 4.46 | inactive |
| QRICH1 (GeneID 54870) | 1 | 6.95 | 51.9 | 26 | active |
| QRICH1 (GeneID 54870) | 2 | 0.18 | 4.23 | 8.29 | inactive |
| QRICH1 (GeneID 54870) | 3 | -0.678 | -1.81 | 3.79 | inactive |
| SYNCRIP (GeneID 10492) | 1 | -0.765 | -2.41 | 5.53 | inactive |
| SYNCRIP (GeneID 10492) | 2 | -0.826 | -2.85 | 2.92 | inactive |
| SYNCRIP (GeneID 10492) | 3 | -0.83 | -2.87 | 4.45 | inactive |
| HSPB1 (GeneID 3315) | 1 | 1.81 | 15.7 | 12.2 | inactive |
| HSPB1 (GeneID 3315) | 2 | -0.343 | 0.553 | 3.31 | inactive |
| HSPB1 (GeneID 3315) | 3 | 2.35 | 19.5 | 11.2 | inactive |
| SELENOT (GeneID 51714) | 1 | -0.727 | -2.14 | 2.48 | inactive |
| SELENOT (GeneID 51714) | 2 | -0.27 | 1.07 | 3.99 | inactive |
| SELENOT (GeneID 51714) | 3 | -0.106 | 2.23 | 5.21 | inactive |
| BDH2 (GeneID 56898) | 1 | -0.0884 | 2.35 | 7.46 | inactive |
| BDH2 (GeneID 56898) | 2 | -0.609 | -1.32 | 3.78 | inactive |
| BDH2 (GeneID 56898) | 3 | -0.898 | -3.35 | 3.24 | inactive |
| TMEM202 (GeneID 338949) | 1 | -0.713 | -2.05 | 3.28 | inactive |
| TMEM202 (GeneID 338949) | 2 | -0.0522 | 2.6 | 4.4 | inactive |
| TMEM202 (GeneID 338949) | 3 | 0.472 | 6.29 | 6.72 | inactive |

Entries above marked active:
| gene | siRNA no. | G2 robust z-score | G2 cells, % of GMNN control | raw share of cells in G2 (%) | Outcome |
| --- | --- | --- | --- | --- | --- |
| QRICH1 (GeneID 54870) | 1 | 6.95 | 51.9 | 26 | active |

More results follow.
| gene | siRNA no. | G2 robust z-score | G2 cells, % of GMNN control | raw share of cells in G2 (%) | Outcome |
| --- | --- | --- | --- | --- | --- |
| TPTE (GeneID 7179) | 1 | -1.32 | -6.29 | 2.75 | inactive |
| TPTE (GeneID 7179) | 2 | -1.69 | -8.95 | 1.61 | inactive |
| TPTE (GeneID 7179) | 3 | 0.218 | 4.5 | 4.85 | inactive |
| FNDC5 (GeneID 252995) | 1 | 5.3 | 40.3 | 18.2 | active |
| FNDC5 (GeneID 252995) | 2 | 3.37 | 26.7 | 12.3 | inactive |
| FNDC5 (GeneID 252995) | 3 | 0.358 | 5.49 | 4.94 | inactive |
| BABAM2 (GeneID 9577) | 1 | 0.272 | 4.88 | 7.54 | inactive |
| BABAM2 (GeneID 9577) | 2 | 0.815 | 8.7 | 7.57 | inactive |
| BABAM2 (GeneID 9577) | 3 | -0.436 | -0.0979 | 3.37 | inactive |
| MAL2 (GeneID 114569) | 1 | 0.276 | 4.91 | 7.95 | inactive |
| MAL2 (GeneID 114569) | 2 | 0.831 | 8.82 | 8.75 | inactive |
| MAL2 (GeneID 114569) | 3 | 0.55 | 6.84 | 7.06 | inactive |
| UBLCP1 (GeneID 134510) | 1 | 0.863 | 9.04 | 7.58 | inactive |
| UBLCP1 (GeneID 134510) | 2 | -0.201 | 1.55 | 3.6 | inactive |
| UBLCP1 (GeneID 134510) | 3 | 0.623 | 7.35 | 5.24 | inactive |
| ST6GAL1 (GeneID 6480) | 1 | 4.33 | 33.4 | 16 | inactive |
| ST6GAL1 (GeneID 6480) | 2 | 1.81 | 15.7 | 9.15 | inactive |
| ST6GAL1 (GeneID 6480) | 3 | -0.054 | 2.59 | 6.55 | inactive |
| RAP2C (GeneID 57826) | 1 | -1.06 | -4.49 | 3.79 | inactive |
| RAP2C (GeneID 57826) | 2 | 0.182 | 4.25 | 5.77 | inactive |
| RAP2C (GeneID 57826) | 3 | -0.382 | 0.282 | 4.45 | inactive |
| MUSK (GeneID 4593) | 1 | -0.0685 | 2.49 | 4.9 | inactive |
| MUSK (GeneID 4593) | 2 | -0.252 | 1.2 | 6 | inactive |
| MUSK (GeneID 4593) | 3 | -0.306 | 0.813 | 5.68 | inactive |
| TREM1 (GeneID 54210) | 1 | -0.145 | 1.94 | 4.55 | inactive |
| TREM1 (GeneID 54210) | 2 | 6.04 | 45.4 | 26.6 | active |
| TREM1 (GeneID 54210) | 3 | -0.678 | -1.8 | 3.58 | inactive |
| RIBC1 (GeneID 158787) | 1 | -0.48 | -0.407 | 3.46 | inactive |
| RIBC1 (GeneID 158787) | 2 | -0.172 | 1.76 | 3.55 | inactive |
| RIBC1 (GeneID 158787) | 3 | -0.927 | -3.56 | 1.64 | inactive |
| PLAC9 (GeneID 219348) | 1 | -0.258 | 1.15 | 3.56 | inactive |
| PLAC9 (GeneID 219348) | 2 | -0.102 | 2.25 | 4.39 | inactive |
| PLAC9 (GeneID 219348) | 3 | -0.88 | -3.22 | 2.03 | inactive |
| ACOD1 (GeneID 730249) | 1 | 0.561 | 6.92 | 6.38 | inactive |
| ACOD1 (GeneID 730249) | 2 | -0.827 | -2.85 | 2.33 | inactive |
| ACOD1 (GeneID 730249) | 3 | -0.63 | -1.47 | 2.95 | inactive |
| ACSL1 (GeneID 2180) | 1 | 3.02 | 24.2 | 14 | inactive |
| ACSL1 (GeneID 2180) | 2 | 1.53 | 13.8 | 10.5 | inactive |
| ACSL1 (GeneID 2180) | 3 | -0.712 | -2.04 | 2.93 | inactive |
